The values that follow come from paper PMC7279249 (International Journal of Molecular Sciences, 2020).

Some peptides are written in HELM: one residue between dots, names in brackets for other building blocks, links after the first $.

The series in a line: general procedure: Fmoc solid-phase peptide synthesis. The following applies: whole synthesis.

Consider PEPTIDE1{[ac].K.W.K.W.[am]}$$$$V2.0, for which the “final purity (method not given)” value was “purity>95%” and the isolated yield entry was “yield 63%”.

“PEPTIDE1{[ac].[TzCat].[TzBn2].[TzCat].[TzBn2].[am]}$$$$V2.0”: the “final purity (method not given)” value is reported as “purity>95%” and the isolated yield result was “yield 54%”.
